Measurements reported in PubChem BioAssay AID1159578 (Peter MacCallum Cancer Centre, 2015)
Here is an unselected part of about 18,000 reagents. Over the whole deposit, about 1,030 (5.7%) got an active call. 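Inactive calls also include pools with fewer than 3300 nuclei, whose migration was not assessed.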 Raw values are not corrected between plates. Entries without a mark were called inactive. Reagents against one gene are numbered here. Reagent sequences are not shown.

Aim: 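Genome-wide hunt for genes controlling movement of lymphatic endothelial cells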 (primary screen)
System: human lymphatic endothelial cells
Reagents: siRNA pool against human genes, 40 nM
Duration: 48 h after transfection
Read-out: 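High-content imaging of dye-stained cells in a scratch assay measures filled wound area and nuclei per well; duplicate means given as ratio to mock and robust z-score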
Reading the numbers: migration robust z-score: higher = faster migration into the scratch; migration relative to mock: higher = more scratch area covered than mock; nuclei per well: higher = more cells in the well
Active means: 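Migration changed when robust z exceeds 2 or falls below -2 and mean nuclei number is at least 3300; otherwise not called changed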
Calls: active = migration changed; inactive = no migration change, or too few cells

gene knocked down	pool no.	migration robust z-score	migration class with cell-count check	migration relative to mock	nuclei per well, duplicate mean
DCAF12L1 (GeneID 139170)	1	0.62	migration z between -2 and 2; enough cells	1.04	5690
TXLNB (GeneID 167838)	1	2.63 (active)	migration z above 2; enough cells	1.57	8028
PTPRN2 (GeneID 5799)	1	-0.28	migration z between -2 and 2; enough cells	0.75	6481
DECR2 (GeneID 26063)	1	0.39	migration z between -2 and 2; enough cells	0.88	4972
ZNF780A (GeneID 284323)	1	0.26	migration z between -2 and 2; enough cells	0.96	5668
MATN3 (GeneID 4148)	1	0.13	migration z between -2 and 2; enough cells	0.92	5799
ADCY10 (GeneID 55811)	1	0.52	migration z between -2 and 2; enough cells	0.9	4762
ABCC8 (GeneID 6833)	1	-1.55	migration z between -2 and 2; enough cells	0.5	4056
TLR1 (GeneID 7096)	1	0.29	migration z between -2 and 2; enough cells	0.86	5904
NOP53 (GeneID 29997)	1	-1	migration z between -2 and 2; enough cells	0.62	5217
CLCA4 (GeneID 22802)	1	-0.6	migration z between -2 and 2; enough cells	0.69	4996
DEF6 (GeneID 50619)	1	-0.4	migration z between -2 and 2; enough cells	0.78	5798
OR6C3 (GeneID 254786)	1	0.02	migration z between -2 and 2; enough cells	0.89	4864
CCT7 (GeneID 10574)	1	-0.23	migration z between -2 and 2; enough cells	0.76	6090
FSHB (GeneID 2488)	1	-0.08	migration z between -2 and 2; enough cells	0.87	8080
PTPRH (GeneID 5794)	1	-1.77	migration z between -2 and 2; enough cells	0.46	6396
ANXA1 (GeneID 301)	1	0.85	migration z between -2 and 2; enough cells	1.1	6254
CARS2 (GeneID 79587)	1	1.57	migration z between -2 and 2; enough cells	1.29	6484
GNB2 (GeneID 2783)	1	0.12	migration z between -2 and 2; enough cells	0.92	6049
HDAC2 (GeneID 3066)	1	-0.76	migration z between -2 and 2; enough cells	0.66	5067
ALG5 (GeneID 29880)	1	-0.6	migration z between -2 and 2; enough cells	0.69	5614
CDK11B (GeneID 984)	1	-2.13	under 3300 nuclei; migration not judged	0.4	3069
TRMT2A (GeneID 27037)	1	-1.14	migration z between -2 and 2; enough cells	0.6	6334
POTEG (GeneID 404785)	1	-1.23	migration z between -2 and 2; enough cells	0.56	4636
OR5H6 (GeneID 79295)	1	0.34	migration z between -2 and 2; enough cells	0.97	6567
TSLIG3C (GeneID 147965)	1	-0.38	migration z between -2 and 2; enough cells	0.78	5034
H2AC18 (GeneID 8337)	1	-0.04	migration z between -2 and 2; enough cells	0.88	5149
LRRC4C (GeneID 57689)	1	-1.58	migration z between -2 and 2; enough cells	0.48	6683
OR2A1 (GeneID 346528)	1	0.57	migration z between -2 and 2; enough cells	1.03	5726
H3C12 (GeneID 8356)	1	1.1	migration z between -2 and 2; enough cells	1.17	5240
NKTR (GeneID 4820)	1	0.11	migration z between -2 and 2; enough cells	0.92	7306
HIC1 (GeneID 3090)	1	-3.79 (active)	migration z below -2; enough cells	0.08	6162
MICAL2 (GeneID 9645)	1	-3.21 (active)	migration z below -2; enough cells	0.18	5662
MICAL2 (GeneID 9645)	2	-1.65	migration z between -2 and 2; enough cells	0.45	4762
URB2 (GeneID 9816)	1	-0.36	migration z between -2 and 2; enough cells	0.74	5144
GNB5 (GeneID 10681)	1	0.44	migration z between -2 and 2; enough cells	1	5488
HRH4 (GeneID 59340)	1	0.7	migration z between -2 and 2; enough cells	0.94	6210
RTCB (GeneID 51493)	1	0.48	migration z between -2 and 2; enough cells	1.01	6568
PRKD1 (GeneID 5587)	1	-0.55	migration z between -2 and 2; enough cells	0.7	5490
MYCL (GeneID 4610)	1	-0.55	migration z between -2 and 2; enough cells	0.7	5754
INSRR (GeneID 3645)	1	1.09	migration z between -2 and 2; enough cells	1.02	6994
ZBTB3 (GeneID 79842)	1	0.44	migration z between -2 and 2; enough cells	1	5432
HAND2 (GeneID 9464)	1	-1.33	migration z between -2 and 2; enough cells	0.55	5554
MAPDA (GeneID 161823)	1	0.2	migration z between -2 and 2; enough cells	0.94	7214
TRIM25 (GeneID 7706)	1	-0.39	migration z between -2 and 2; enough cells	0.73	5154
WIPI2 (GeneID 26100)	1	1.32	migration z between -2 and 2; enough cells	1.23	6244
PLGLB2 (GeneID 5342)	1	-0.86	migration z between -2 and 2; enough cells	0.64	5900
PKLR (GeneID 5313)	1	1.06	migration z between -2 and 2; enough cells	1.01	4992
SLC7A7 (GeneID 9056)	1	1.3	migration z between -2 and 2; enough cells	1.06	5566
CST3 (GeneID 1471)	1	2.06 (active)	migration z above 2; enough cells	1.42	5657
LINC00173 (GeneID 100287569)	1	-2.44 (active)	migration z below -2; enough cells	0.25	4348
OC90 (GeneID 729330)	1	0.73	migration z between -2 and 2; enough cells	0.94	4090
CLEC14A (GeneID 161198)	1	-0.48	migration z between -2 and 2; enough cells	0.76	6314
CLNK (GeneID 116449)	1	0.28	migration z between -2 and 2; enough cells	0.96	5558
CNTN4 (GeneID 152330)	1	0.7	migration z between -2 and 2; enough cells	1.06	5557
STX16 (GeneID 8675)	1	2.34 (active)	migration z above 2; enough cells	1.49	5814
RBCK1 (GeneID 10616)	1	-0.05	migration z between -2 and 2; enough cells	0.8	5359
APOBEC3D (GeneID 140564)	1	-3.58 (active)	migration z below -2; enough cells	0.12	3584
ZFYVE9 (GeneID 9372)	1	0.67	migration z between -2 and 2; enough cells	0.93	5392
OR2S2 (GeneID 56656)	1	0.02	migration z between -2 and 2; enough cells	0.89	6276
OR11H4 (GeneID 390442)	1	1.14	migration z between -2 and 2; enough cells	1.02	5138
EMILIN1 (GeneID 11117)	1	0.36	migration z between -2 and 2; enough cells	0.98	4885
G6PC1 (GeneID 2538)	1	-0.16	migration z between -2 and 2; enough cells	0.78	5186
ARSI (GeneID 340075)	1	0.1	migration z between -2 and 2; enough cells	0.82	5210
KRT2 (GeneID 3849)	1	0.46	migration z between -2 and 2; enough cells	1.01	6370
TTLL11 (GeneID 158135)	1	-1.27	migration z between -2 and 2; enough cells	0.56	3473
STIMATE (GeneID 375346)	1	-0.19	migration z between -2 and 2; enough cells	0.84	6631
ZNF148 (GeneID 7707)	1	-0.11	migration z between -2 and 2; enough cells	0.78	5246
CD37 (GeneID 951)	1	0.66	migration z between -2 and 2; enough cells	1.06	6001
DSCAML1 (GeneID 57453)	1	-1.57	migration z between -2 and 2; enough cells	0.48	5244
DHRS7B (GeneID 25979)	1	-0.18	migration z between -2 and 2; enough cells	0.84	4080
OR1L4 (GeneID 254973)	1	0.68	migration z between -2 and 2; enough cells	1.06	5545
BCORL1 (GeneID 63035)	1	0.48	migration z between -2 and 2; enough cells	1.01	5286

Ordered by “nuclei per well, duplicate mean” (high to low): some entries from above
gene knocked down	pool no.	migration robust z-score	migration class with cell-count check	migration relative to mock	nuclei per well, duplicate mean
CCT7 (GeneID 10574)	1	-0.23	migration z between -2 and 2; enough cells	0.76	6090
TLR1 (GeneID 7096)	1	0.29	migration z between -2 and 2; enough cells	0.86	5904
MATN3 (GeneID 4148)	1	0.13	migration z between -2 and 2; enough cells	0.92	5799
DEF6 (GeneID 50619)	1	-0.4	migration z between -2 and 2; enough cells	0.78	5798
ZNF780A (GeneID 284323)	1	0.26	migration z between -2 and 2; enough cells	0.96	5668
NOP53 (GeneID 29997)	1	-1	migration z between -2 and 2; enough cells	0.62	5217
CLCA4 (GeneID 22802)	1	-0.6	migration z between -2 and 2; enough cells	0.69	4996
OR6C3 (GeneID 254786)	1	0.02	migration z between -2 and 2; enough cells	0.89	4864
ADCY10 (GeneID 55811)	1	0.52	migration z between -2 and 2; enough cells	0.9	4762
ABCC8 (GeneID 6833)	1	-1.55	migration z between -2 and 2; enough cells	0.5	4056
